Assay results: the supplement of paper PMC10849652
The other results are listed elsewhere or left out.

Protein sequences, listed by entry. Tags and fused reporters are not part of them. Lines headed by an entry give the natural chain unless they say otherwise; changes in a name come on top.
UniProt Q07866: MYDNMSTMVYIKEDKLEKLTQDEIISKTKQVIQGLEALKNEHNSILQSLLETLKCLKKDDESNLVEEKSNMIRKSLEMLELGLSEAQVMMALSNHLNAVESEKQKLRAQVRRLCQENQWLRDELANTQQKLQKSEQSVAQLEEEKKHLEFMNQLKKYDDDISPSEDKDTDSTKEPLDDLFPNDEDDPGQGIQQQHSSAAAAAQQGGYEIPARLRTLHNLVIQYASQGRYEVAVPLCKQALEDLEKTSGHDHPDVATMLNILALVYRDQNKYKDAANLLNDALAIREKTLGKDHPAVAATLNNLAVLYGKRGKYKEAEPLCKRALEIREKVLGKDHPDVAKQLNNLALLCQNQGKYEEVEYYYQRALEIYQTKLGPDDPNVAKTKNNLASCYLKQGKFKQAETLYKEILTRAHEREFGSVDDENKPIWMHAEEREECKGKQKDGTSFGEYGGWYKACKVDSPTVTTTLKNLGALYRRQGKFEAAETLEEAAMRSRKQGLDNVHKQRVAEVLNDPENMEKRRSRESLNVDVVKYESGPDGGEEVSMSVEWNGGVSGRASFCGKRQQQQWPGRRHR
UniProt Q06136: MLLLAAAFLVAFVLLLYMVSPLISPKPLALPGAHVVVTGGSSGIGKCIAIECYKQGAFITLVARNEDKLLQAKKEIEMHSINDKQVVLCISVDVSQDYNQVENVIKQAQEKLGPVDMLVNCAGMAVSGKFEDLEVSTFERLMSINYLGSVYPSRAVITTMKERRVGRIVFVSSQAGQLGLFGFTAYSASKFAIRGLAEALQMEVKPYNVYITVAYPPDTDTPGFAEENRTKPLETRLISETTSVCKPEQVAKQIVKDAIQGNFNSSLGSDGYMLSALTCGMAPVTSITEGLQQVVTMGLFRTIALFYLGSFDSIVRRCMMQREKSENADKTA
UniProt Q1ED39: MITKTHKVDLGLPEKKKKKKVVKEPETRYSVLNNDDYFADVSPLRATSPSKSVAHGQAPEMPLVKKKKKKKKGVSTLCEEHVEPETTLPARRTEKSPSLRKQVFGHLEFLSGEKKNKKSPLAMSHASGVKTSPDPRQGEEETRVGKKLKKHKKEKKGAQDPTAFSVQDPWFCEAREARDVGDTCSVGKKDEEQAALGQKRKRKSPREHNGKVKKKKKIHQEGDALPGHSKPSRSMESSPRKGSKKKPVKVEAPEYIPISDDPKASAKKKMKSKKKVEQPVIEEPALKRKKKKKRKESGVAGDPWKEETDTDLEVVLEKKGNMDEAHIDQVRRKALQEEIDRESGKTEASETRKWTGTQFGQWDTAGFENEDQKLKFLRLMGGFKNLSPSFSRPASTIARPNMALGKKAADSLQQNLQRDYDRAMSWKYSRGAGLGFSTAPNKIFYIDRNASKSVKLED
UniProt Q9Y597: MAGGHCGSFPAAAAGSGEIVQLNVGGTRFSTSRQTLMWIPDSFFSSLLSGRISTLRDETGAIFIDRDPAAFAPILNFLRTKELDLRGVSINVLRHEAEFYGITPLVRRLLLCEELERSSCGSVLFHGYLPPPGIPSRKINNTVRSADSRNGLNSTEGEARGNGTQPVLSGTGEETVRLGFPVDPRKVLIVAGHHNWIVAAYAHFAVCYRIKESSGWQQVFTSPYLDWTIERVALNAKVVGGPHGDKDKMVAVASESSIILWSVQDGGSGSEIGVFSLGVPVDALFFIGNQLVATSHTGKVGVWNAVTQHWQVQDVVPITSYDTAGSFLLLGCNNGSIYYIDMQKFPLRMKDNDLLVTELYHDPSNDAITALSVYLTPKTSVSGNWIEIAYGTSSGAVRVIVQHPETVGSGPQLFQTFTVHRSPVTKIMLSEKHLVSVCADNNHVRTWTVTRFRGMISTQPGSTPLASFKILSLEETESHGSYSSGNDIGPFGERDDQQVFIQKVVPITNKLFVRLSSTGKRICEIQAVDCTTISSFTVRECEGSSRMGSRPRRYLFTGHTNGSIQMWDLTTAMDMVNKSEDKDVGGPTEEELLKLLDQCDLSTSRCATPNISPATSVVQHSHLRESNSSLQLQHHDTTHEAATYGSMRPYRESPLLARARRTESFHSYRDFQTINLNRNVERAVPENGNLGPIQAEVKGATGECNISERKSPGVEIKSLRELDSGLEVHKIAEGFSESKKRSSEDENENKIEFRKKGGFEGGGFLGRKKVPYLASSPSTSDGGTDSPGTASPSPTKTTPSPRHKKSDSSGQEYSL
UniProt Q96A73: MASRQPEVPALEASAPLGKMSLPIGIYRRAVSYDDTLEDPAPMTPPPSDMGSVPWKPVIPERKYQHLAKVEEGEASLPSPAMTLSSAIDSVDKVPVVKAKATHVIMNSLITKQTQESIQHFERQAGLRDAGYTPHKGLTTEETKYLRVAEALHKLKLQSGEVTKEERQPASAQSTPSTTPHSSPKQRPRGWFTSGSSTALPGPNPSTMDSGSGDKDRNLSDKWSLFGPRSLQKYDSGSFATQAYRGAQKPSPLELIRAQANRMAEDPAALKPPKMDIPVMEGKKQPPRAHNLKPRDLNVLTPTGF
UniProt Q8IYS2: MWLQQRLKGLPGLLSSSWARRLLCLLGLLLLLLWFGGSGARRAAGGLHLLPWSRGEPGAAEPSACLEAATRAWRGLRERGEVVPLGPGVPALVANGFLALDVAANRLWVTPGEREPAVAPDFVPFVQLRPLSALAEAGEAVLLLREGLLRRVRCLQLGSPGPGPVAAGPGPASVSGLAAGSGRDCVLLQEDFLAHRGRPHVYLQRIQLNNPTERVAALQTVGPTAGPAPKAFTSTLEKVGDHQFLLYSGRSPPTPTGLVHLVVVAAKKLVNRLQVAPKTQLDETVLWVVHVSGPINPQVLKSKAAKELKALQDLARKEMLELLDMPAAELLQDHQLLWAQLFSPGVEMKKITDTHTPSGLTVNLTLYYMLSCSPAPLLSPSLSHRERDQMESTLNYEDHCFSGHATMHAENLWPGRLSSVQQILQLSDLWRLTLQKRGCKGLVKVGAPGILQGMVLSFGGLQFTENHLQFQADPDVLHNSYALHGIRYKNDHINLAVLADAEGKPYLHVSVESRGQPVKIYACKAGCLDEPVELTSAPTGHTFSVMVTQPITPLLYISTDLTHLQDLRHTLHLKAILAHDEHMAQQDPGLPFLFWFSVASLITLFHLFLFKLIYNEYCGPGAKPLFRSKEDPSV
UniProt Q96AT1: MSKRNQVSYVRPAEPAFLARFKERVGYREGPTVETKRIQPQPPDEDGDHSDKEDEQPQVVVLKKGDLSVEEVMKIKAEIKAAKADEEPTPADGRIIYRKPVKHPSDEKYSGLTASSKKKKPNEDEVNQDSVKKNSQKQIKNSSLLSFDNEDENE
UniProt Q9NXV2: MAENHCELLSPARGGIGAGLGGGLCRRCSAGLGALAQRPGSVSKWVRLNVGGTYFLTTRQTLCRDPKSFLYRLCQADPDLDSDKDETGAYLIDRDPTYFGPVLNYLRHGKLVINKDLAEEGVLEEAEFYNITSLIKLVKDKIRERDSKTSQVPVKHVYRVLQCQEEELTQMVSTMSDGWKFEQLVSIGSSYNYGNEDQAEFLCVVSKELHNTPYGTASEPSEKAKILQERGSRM
UniProt O75449: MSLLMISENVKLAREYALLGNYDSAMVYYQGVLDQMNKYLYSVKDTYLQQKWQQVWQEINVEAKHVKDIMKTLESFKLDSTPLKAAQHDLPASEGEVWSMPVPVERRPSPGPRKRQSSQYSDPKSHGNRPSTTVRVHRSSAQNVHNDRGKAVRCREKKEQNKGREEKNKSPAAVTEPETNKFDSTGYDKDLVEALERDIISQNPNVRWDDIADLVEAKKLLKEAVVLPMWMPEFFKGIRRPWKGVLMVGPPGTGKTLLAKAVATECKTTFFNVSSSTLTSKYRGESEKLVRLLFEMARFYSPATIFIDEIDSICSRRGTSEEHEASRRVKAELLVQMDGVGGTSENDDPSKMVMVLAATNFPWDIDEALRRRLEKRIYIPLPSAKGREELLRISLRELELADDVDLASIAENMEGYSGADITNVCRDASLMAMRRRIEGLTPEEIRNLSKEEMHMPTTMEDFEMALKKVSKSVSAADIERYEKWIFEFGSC
UniProt P01042: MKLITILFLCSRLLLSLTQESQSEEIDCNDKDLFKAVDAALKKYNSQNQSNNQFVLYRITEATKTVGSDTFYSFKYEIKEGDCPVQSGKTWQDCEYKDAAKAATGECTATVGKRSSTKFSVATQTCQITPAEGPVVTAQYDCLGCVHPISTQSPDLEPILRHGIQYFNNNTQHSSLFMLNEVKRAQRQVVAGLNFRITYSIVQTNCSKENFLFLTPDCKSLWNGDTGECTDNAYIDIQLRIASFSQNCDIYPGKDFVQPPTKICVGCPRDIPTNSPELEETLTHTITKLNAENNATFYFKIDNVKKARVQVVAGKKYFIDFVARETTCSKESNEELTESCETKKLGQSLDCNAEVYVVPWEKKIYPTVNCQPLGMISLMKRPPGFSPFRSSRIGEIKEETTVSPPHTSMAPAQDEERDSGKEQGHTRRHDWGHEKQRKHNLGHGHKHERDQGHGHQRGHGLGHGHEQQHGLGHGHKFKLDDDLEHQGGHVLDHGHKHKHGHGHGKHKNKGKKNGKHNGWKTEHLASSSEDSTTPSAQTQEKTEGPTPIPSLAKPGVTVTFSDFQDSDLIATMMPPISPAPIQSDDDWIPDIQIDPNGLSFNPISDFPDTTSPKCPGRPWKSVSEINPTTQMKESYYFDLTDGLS
UniProt Q92945: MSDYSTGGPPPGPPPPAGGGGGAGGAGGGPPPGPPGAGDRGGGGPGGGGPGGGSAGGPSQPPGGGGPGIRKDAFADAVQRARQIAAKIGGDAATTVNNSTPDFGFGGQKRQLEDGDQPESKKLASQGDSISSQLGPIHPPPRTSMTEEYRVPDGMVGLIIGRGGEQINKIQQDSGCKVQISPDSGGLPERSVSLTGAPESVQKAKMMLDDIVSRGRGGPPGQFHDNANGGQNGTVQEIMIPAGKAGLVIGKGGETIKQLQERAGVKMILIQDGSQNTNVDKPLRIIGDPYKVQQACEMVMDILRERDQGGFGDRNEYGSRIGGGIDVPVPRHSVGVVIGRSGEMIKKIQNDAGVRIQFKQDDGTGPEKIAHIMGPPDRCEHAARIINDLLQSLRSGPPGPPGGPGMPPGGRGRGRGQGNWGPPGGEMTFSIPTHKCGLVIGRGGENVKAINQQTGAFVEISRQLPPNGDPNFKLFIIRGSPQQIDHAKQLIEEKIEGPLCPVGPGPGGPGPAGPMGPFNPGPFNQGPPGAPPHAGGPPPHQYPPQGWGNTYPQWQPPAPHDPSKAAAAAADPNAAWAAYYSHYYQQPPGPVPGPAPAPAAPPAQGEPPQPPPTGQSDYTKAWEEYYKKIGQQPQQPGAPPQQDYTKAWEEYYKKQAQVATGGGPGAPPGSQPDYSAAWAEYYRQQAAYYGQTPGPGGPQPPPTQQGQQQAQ
UniProt Q8N5M9: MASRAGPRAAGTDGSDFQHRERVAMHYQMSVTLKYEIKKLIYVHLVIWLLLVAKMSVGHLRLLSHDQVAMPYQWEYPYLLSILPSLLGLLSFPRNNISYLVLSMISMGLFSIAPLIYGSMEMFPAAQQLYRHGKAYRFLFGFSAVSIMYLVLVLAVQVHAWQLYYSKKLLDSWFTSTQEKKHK
UniProt Q96EK5: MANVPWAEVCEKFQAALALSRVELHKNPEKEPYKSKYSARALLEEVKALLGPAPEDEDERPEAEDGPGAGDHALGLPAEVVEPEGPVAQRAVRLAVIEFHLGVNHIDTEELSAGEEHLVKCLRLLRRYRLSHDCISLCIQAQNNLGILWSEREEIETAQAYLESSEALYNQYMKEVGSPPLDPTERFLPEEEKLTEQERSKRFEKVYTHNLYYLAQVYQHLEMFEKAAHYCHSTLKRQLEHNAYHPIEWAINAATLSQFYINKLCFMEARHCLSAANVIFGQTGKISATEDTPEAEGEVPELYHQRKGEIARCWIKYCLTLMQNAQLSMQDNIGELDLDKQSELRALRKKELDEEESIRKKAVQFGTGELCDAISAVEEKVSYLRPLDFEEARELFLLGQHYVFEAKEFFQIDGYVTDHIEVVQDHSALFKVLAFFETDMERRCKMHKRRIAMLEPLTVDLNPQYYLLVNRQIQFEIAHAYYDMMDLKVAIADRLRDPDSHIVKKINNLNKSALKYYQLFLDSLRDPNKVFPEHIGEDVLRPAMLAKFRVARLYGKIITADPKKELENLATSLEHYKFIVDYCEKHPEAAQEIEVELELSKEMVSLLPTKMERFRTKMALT
UniProt Q9Y664: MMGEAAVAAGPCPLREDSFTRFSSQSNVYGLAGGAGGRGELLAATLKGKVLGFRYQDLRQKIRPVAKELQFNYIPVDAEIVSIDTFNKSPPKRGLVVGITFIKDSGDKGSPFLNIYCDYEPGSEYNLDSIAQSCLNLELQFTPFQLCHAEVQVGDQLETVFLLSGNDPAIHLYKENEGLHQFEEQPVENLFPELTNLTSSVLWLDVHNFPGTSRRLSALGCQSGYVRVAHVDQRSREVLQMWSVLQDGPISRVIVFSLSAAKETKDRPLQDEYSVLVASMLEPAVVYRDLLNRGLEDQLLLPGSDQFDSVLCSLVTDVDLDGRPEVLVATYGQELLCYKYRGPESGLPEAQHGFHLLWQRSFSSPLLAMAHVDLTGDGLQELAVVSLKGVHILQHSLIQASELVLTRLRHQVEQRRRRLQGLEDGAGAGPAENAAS

Key:
Assay in all cases: log2 fold change, soluble protein after heating vs DMSO (PISA); higher = thermal stabilisation; K562 cells, 10 uM, 30 min; active = over 0.2 and 3.5 SD of the protein, either way, in both replicates (recomputed)
bafetinib = compound: Cc1ccc(NC(=O)c2ccc(CN3CC[C@H](N(C)C)C3)c(C(F)(F)F)c2)cc1Nc1nccc(-c2cncnc2)n1 [bafetinib]
Procedure, shortened: (§1)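 K562 cells at 2×10^6 cells/mL were given 10 μM compound for 30 min. Aliquots then went through 3 min of heating across 48°C-58°C, were pooled, and were extracted in PBS with 0.5% NP-40 at 4°C, and the supernatant after 21,000xg for 90 min was quantified by TMTpro 16plex LC-MS/MS with channel sums equalised. Thermal stability relative to control samples, from duplicates, is given as log2 fold change.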

[1] = compound: Cc1cccc(CC(=O)N2CCc3c2ccc(-c2cn(C)c4ncnc(N)c24)c3F)n1
Procedure, shortened: as §1

nilotinib = compound: Cc1cn(-c2cc(NC(=O)c3ccc(C)c(Nc4nccc(-c5cccnc5)n4)c3)cc(C(F)(F)F)c2)cn1 [nilotinib]
Procedure, shortened: as §1

[2] = compound: Cc1nc(Nc2n[nH]c3c2CN(C(=O)N[C@H](CN(C)C)c2ccccc2)C3(C)C)c2sccc2n1
Procedure, shortened: as §1

dasatinib = compound: Cc1nc(Nc2ncc(C(=O)Nc3c(C)cccc3Cl)s2)cc(N2CCN(CCO)CC2)n1 [dasatinib]
Procedure, shortened: as §1

[3] = compound: Cc1ncc(-c2ccnc(Nc3ccc(S(C)(=O)=O)cc3)n2)n1C(C)C
Procedure, shortened: as §1

[4] = compound: Cn1cc(-c2ccc3c(c2)CCN3C(=O)Cc2cccc(C(F)(F)F)c2)c2c(N)ncnc21
Procedure, shortened: as §1

[5] = compound: Cn1cc(-c2ccc3nnc(C(F)(F)c4ccc5ncccc5c4)n3n2)cn1
Procedure, shortened: as §1

tipifarnib = compound: Cn1cncc1[C@@](N)(c1ccc(Cl)cc1)c1ccc2c(c1)c(-c1cccc(Cl)c1)cc(=O)n2C [tipifarnib]
Procedure, shortened: as §1

mubritinib = compound: FC(F)(F)c1ccc(/C=C/c2nc(COc3ccc(CCCCn4ccnn4)cc3)co2)cc1 [mubritinib]
Procedure, shortened: as §1

| Target | log2 fold change (bafetinib) | log2 fold change [1] | log2 fold change (nilotinib) | log2 fold change [2] | log2 fold change (dasatinib) | log2 fold change [3] | log2 fold change [4] | log2 fold change [5] | log2 fold change (tipifarnib) | log2 fold change (mubritinib) |
| --- | --- | --- | --- | --- | --- | --- | --- | --- | --- | --- |
| KDM5D isoform 3 (UniProt Q9BY66) | inactive: 0.208 | inactive: -0.049 | inactive: 0.089 | inactive: -0.054 | inactive: -0.289 | inactive: -0.047 | inactive: -0.026 | inactive: 0.058 | inactive: -0.044 | inactive: 0.203 |
| KNSTRN (UniProt Q9Y448) | inactive: -0.022 | inactive: -0.037 | inactive: -0.003 | inactive: -0.108 | inactive: 0.007 | inactive: 0.01 | inactive: -0.152 | inactive: -0.034 | inactive: 0.043 | inactive: -0.057 |
| KLC1 isoform 6 (UniProt Q07866) | inactive: 0.009 | inactive: 0 | inactive: -0.005 | inactive: -0.077 | inactive: -0.025 | inactive: -0.01 | inactive: 0.027 | inactive: 0.024 | inactive: -0.023 | inactive: 0.049 |
| KDSR (UniProt Q06136) | inactive: -0.008 | inactive: 0 | inactive: 0.019 | inactive: 0.02 | inactive: 0.101 | inactive: 0.012 | inactive: 0.016 | inactive: 0.03 | inactive: 0.009 | inactive: 0.019 |
| KRAS isoform 2 (UniProt P01116) | inactive: 0.008 | inactive: -0.115 | inactive: -0.123 | inactive: 0.074 | inactive: -0.018 | inactive: -0.041 | inactive: 0.064 | inactive: -0.08 | inactive: 0.087 | inactive: 0.041 |
| KNOP1 (UniProt Q1ED39) | inactive: -0.145 | inactive: 0.091 | inactive: 0.138 | inactive: -0.07 | inactive: 0.234 | inactive: 0.047 | inactive: -0.509 | inactive: -0.009 | inactive: 0.047 | inactive: 0.146 |
| JMJD6 isoform 3 (UniProt Q6NYC1) | inactive: -0.067 | inactive: 0.06 | inactive: -0.011 | inactive: -0.254 | inactive: -0.009 | inactive: -0.098 | inactive: -0.008 | inactive: -0.047 | inactive: 0.036 | inactive: -0.065 |
| KCTD3 (UniProt Q9Y597) | inactive: -0.054 | inactive: -0.043 | inactive: -0.036 | inactive: 0.062 | inactive: 0.14 | inactive: -0.033 | inactive: -0.013 | inactive: 0.025 | inactive: -0.001 | inactive: 0.003 |
| KATNB1 (UniProt Q9BVA0) | inactive: 0.062 | inactive: 0.011 | inactive: 0.021 | inactive: -0.116 | inactive: -0.12 | inactive: -0.033 | inactive: -0.018 | inactive: 0.01 | inactive: -0.072 | inactive: 0.01 |
| KIAA1191 (UniProt Q96A73) | inactive: -0.07 | inactive: 0.042 | inactive: -0.071 | inactive: -0.035 | inactive: -0.048 | inactive: 0.006 | inactive: 0.008 | inactive: -0.033 | inactive: 0.014 | inactive: -0.071 |
| KIAA2013 isoform 2 (UniProt Q8IYS2) | inactive: -0.07 | inactive: -0.022 | inactive: -0.006 | inactive: 0.004 | inactive: 0.011 | inactive: -0.008 | inactive: 0.022 | inactive: 0.003 | inactive: 0.065 | inactive: 0.017 |
| KEAP1 (UniProt Q14145) | inactive: -0.057 | inactive: 0.032 | inactive: -0.108 | inactive: -0.108 | inactive: -0.027 | inactive: 0.021 | inactive: -0.085 | inactive: -0.07 | inactive: -0.047 | inactive: 0.037 |
| KIF13A (UniProt Q9H1H9) | inactive: -0.033 | inactive: -0.095 | inactive: 0.012 | inactive: -0.01 | inactive: -0.044 | inactive: 0.008 | inactive: 0.029 | inactive: -0.032 | inactive: -0.014 | inactive: 0.024 |
| KIAA1143 (UniProt Q96AT1) | inactive: -0.204 | inactive: -0.004 | inactive: 0.034 | inactive: -0.021 | inactive: 0.048 | inactive: -0.007 | inactive: -0.008 | inactive: -0.042 | inactive: 0.098 | inactive: 0.065 |
| KCTD5 (UniProt Q9NXV2) | inactive: -0.118 | inactive: -0.122 | inactive: 0.038 | inactive: 0.03 | inactive: -0.042 | inactive: 0.002 | inactive: 0.076 | inactive: 0.018 | inactive: 0.04 | inactive: 0.078 |
| KCNK1 (UniProt O00180) | inactive: -0.114 | inactive: 0.029 | inactive: 0.184 | inactive: -0.117 | inactive: 0.254 | inactive: -0.073 | inactive: 0.032 | inactive: -0.083 | inactive: 0.123 | – |

A second format for part of the listing above:
Target,log2 fold change (bafetinib),log2 fold change [1],log2 fold change (nilotinib),log2 fold change [2],log2 fold change (dasatinib),log2 fold change [3],log2 fold change [4],log2 fold change [5],log2 fold change (tipifarnib),log2 fold change (mubritinib)
KNSTRN (UniProt Q9Y448),inactive: -0.022,inactive: -0.037,inactive: -0.003,inactive: -0.108,inactive: 0.007,inactive: 0.01,inactive: -0.152,inactive: -0.034,inactive: 0.043,inactive: -0.057
KLC1 isoform 6 (UniProt Q07866),inactive: 0.009,inactive: 0,inactive: -0.005,inactive: -0.077,inactive: -0.025,inactive: -0.01,inactive: 0.027,inactive: 0.024,inactive: -0.023,inactive: 0.049

Additional records.

| Target | log2 fold change (bafetinib) | log2 fold change [1] | log2 fold change (nilotinib) | log2 fold change [2] | log2 fold change (dasatinib) | log2 fold change [3] | log2 fold change [4] | log2 fold change [5] | log2 fold change (tipifarnib) | log2 fold change (mubritinib) |
| --- | --- | --- | --- | --- | --- | --- | --- | --- | --- | --- |
| KRIT1 (UniProt O00522) | inactive: 0.009 | inactive: 0.054 | inactive: 0.198 | inactive: 0.003 | inactive: -0.109 | inactive: 0.035 | inactive: -0.174 | inactive: -0.064 | inactive: -0.034 | – |
| KIF21A isoform 4 (UniProt Q7Z4S6) | inactive: 0.051 | inactive: 0.079 | inactive: -0.104 | inactive: 0.083 | inactive: -0.193 | inactive: 0.037 | inactive: -0.066 | inactive: -0.073 | inactive: -0.039 | inactive: 0.11 |
| KIAA1522 isoform 2 (UniProt Q9P206) | inactive: 0.049 | inactive: 0.028 | inactive: 0.03 | inactive: -0.078 | inactive: -0.018 | inactive: -0.027 | inactive: 0.027 | inactive: -0.053 | inactive: 0.14 | inactive: -0.009 |
| KATNA1 (UniProt O75449) | inactive: 0.076 | inactive: 0.04 | inactive: 0.017 | inactive: -0.001 | inactive: 0.028 | inactive: -0.016 | inactive: 0.018 | inactive: -0.023 | inactive: -0.03 | inactive: 0.022 |
| JMJD1C (UniProt Q15652) | inactive: -0.031 | inactive: 0.118 | inactive: -0.057 | inactive: -0.083 | inactive: -0.101 | inactive: 0.052 | inactive: 0.093 | inactive: 0.005 | inactive: 0.027 | inactive: 0.127 |
| KNG1 (UniProt P01042) | inactive: -0.149 | inactive: -0.161 | inactive: 0.129 | inactive: 0.166 | inactive: 0.015 | inactive: 0.053 | inactive: 0.216 | inactive: -0.202 | inactive: 0.067 | inactive: -0.218 |
| KHSRP (UniProt Q92945) | inactive: -0.052 | inactive: -0.033 | inactive: 0.02 | inactive: 0.015 | inactive: 0.031 | inactive: -0.017 | inactive: 0.019 | inactive: 0.005 | inactive: 0.012 | inactive: 0.026 |
| JAGN1 (UniProt Q8N5M9) | inactive: -0.061 | inactive: -0.152 | inactive: 0.015 | inactive: 0.053 | inactive: 0.06 | inactive: -0.039 | inactive: 0.068 | inactive: 0.079 | inactive: -0.059 | inactive: 0.005 |
| KHDC4 (UniProt Q7Z7F0) | inactive: -0.051 | inactive: 0.057 | inactive: 0.063 | inactive: -0.054 | inactive: -0.009 | inactive: -0.053 | inactive: -0.006 | inactive: -0.053 | inactive: -0.133 | inactive: 0.004 |
| KIFBP (UniProt Q96EK5) | inactive: 0.006 | inactive: 0.094 | inactive: -0.162 | inactive: -0.079 | inactive: -0.114 | inactive: -0.004 | inactive: -0.084 | inactive: -0.046 | inactive: -0.063 | inactive: -0.078 |
| KDM2B (UniProt Q8NHM5) | inactive: 0.058 | – | – | – | – | – | – | – | – | – |
| KPTN (UniProt Q9Y664) | inactive: -0.158 | inactive: 0.118 | inactive: 0.009 | inactive: -0.005 | inactive: -0.141 | inactive: -0.02 | inactive: 0.196 | inactive: 0.063 | inactive: 0.003 | inactive: 0.006 |
| KEL (UniProt P23276) | inactive: -0.027 | inactive: -0.002 | inactive: 0.017 | inactive: -0.032 | inactive: -0.019 | inactive: 0.004 | inactive: 0.083 | inactive: 0.003 | inactive: 0.031 | active: -0.591 |
| KMT2D isoform 3 (UniProt O14686) | inactive: 0.03 | inactive: 0.046 | inactive: 0.057 | inactive: -0.07 | inactive: -0.101 | inactive: 0 | inactive: -0.062 | inactive: -0.04 | inactive: -0.015 | inactive: -0.007 |
| KDM2A (UniProt Q9Y2K7) | inactive: -0.044 | inactive: 0.056 | inactive: -0.162 | inactive: 0.059 | inactive: -0.05 | inactive: -0.075 | inactive: -0.052 | inactive: -0.084 | inactive: 0.101 | inactive: 0.045 |
